Construct, isoform or probe ends are uncertain for at least one entry. Results from cells or extracts need not show a direct contact. Tags and fusion partners may be left off the protein sequences shown.
Biological target: T1, c-Rel (NF-kB site binding factor) (UniProt Q04864)
T1 sequence (looked up, limits assumed): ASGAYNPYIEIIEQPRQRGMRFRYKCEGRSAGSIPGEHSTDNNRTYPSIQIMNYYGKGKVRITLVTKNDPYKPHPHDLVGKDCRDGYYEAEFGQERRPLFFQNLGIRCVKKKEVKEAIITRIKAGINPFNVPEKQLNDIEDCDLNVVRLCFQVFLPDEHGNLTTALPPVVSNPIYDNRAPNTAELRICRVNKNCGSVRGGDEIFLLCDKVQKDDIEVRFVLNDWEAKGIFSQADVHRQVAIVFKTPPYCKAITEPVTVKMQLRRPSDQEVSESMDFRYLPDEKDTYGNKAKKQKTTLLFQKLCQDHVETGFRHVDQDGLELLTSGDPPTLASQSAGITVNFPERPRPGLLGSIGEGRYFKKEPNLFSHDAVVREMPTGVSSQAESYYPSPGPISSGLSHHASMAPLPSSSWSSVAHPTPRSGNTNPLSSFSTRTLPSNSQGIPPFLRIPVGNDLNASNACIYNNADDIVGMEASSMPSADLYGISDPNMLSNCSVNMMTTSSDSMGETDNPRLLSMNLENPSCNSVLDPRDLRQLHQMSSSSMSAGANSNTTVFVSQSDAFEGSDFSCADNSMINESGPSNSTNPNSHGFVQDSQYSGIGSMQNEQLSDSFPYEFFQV
Assay: ELONA
Settings: PS; protein in an extract; label: 3' biotin

Question: Does “GGGGACTTTCCGCTGGGACTTTCTAG / CTGGAAAGTCCCAGCGGAAGGTCCCC [NF-kB binding site]” bind?
Answer: Result: binds

Source: patent publication US5747253
